Assay results from PubChem BioAssay AID248 (DTP/NCI, 2004).
The list shows only some results of the screen, not a fair sample: it gathers tests that were run many times, whatever their T/C, doses with no T/C, and many T/C values between a quarter and a half above the control. Other doses and runs of a compound stand elsewhere. T/C gives the treated animals as a percentage of the vehicle group. Some doses have a count of surviving animals in place of a T/C: the source files T/C as zero there, which appears to mark a toxic dose or a test without result, not a measured value. Some survivor counts are full or nearly so, which does not show that the dose was tolerated: the source hardly ever lists a survival T/C far under the control, and the zero likely stands for such cases as well. Counts of survivors are from the toxicity check (mostly the fifth day) where no day follows; animals may have died later. Schedules are NCI's codes, taken here to give the interval after Q, in days (D) or hours (H), and the number of doses after X. Some schedule codes hold Z or #, which are not explained here. Some doses were run more than once; the results are listed from low to high. For survival time, this PubChem deposit counts one and a half times the control or more as active, and values a quarter to a half above the control carry no call in these data; other NCI protocols may use other cut-offs.

Tested on: L1210 leukemia ip in BDF1 mice, survival T/C
Assay: NCI In Vivo Anticancer Drug Screen. Data for tumor model L1210 Leukemia (intraperitoneal) in B6D2F1 (BDF1) mice
Conditions: T/C endpoint: mean survival time, higher T/C = longer survival
[1] = dose: 400.0 mg/kg/injection, schedule: Q01DX009 (ip), vehicle: saline with Tween-80
[2] = dose: 200.0 mg/kg/injection, schedule: Q01DX009 (ip), vehicle: Klucel (hydroxypropylcellulose) (HPC)
[3] = dose: 200.0 mg/kg/injection, schedule: Q04DX002 (ip), vehicle: saline
[4] = dose: 100.0 mg/kg/injection, schedule: Q01DX009 (ip), vehicle: Klucel (hydroxypropylcellulose) (HPC)
[5] = dose: 400.0 mg/kg/injection, schedule: Q01DX009 (ip), vehicle: Klucel (hydroxypropylcellulose) (HPC)

**Q.** Which results are given for `CCOC(=O)c1ccc(NC(=O)N(C)N=O)cc1`?
**A.** T/C (dose: 150.0 mg/kg/injection, schedule: Q01DX001 (ip), vehicle: carboxymethylcellulose (CMC)): 130 % of control; survivor count (dose: 300.0 mg/kg/injection, schedule: Q01DX001 (ip), vehicle: carboxymethylcellulose (CMC)): 6 of 10; survivor count (dose: 600.0 mg/kg/injection, schedule: Q01DX001 (ip), vehicle: carboxymethylcellulose (CMC)): 0 of 10; survivor count (dose: 1200.0 mg/kg/injection, schedule: Q01DX001 (ip), vehicle: carboxymethylcellulose (CMC)): 0 of 10

**Q.** What does the source list for `Nc1[nH]nc2nc(-c3ccccc3)cnc12`?
**A.** survivor count (dose: 200.0 mg/kg/injection, schedule: Q01DX009 (ip), vehicle: saline with Tween-80): 5 of 6; survivor count [1]: 0 of 6

**Q.** Which results are given for `COc1cc(C)c(CN(C)C)c(OC)c1`?
**A.** survivor count (dose: 18.0 mg/kg/injection, schedule: Q01DX Z (ip), vehicle: methylcellulose (MC)): 6 of 6; survivor count (dose: 40.0 mg/kg/injection, schedule: Q01DX Z (ip), vehicle: methylcellulose (MC)): 6 of 6; survivor count (dose: 60.0 mg/kg/injection, schedule: Q01DX Z (ip), vehicle: methylcellulose (MC)): 5 of 6

**Q.** For `NC(=O)/C=C/C(=O)O`, which survivor count [1] is on record?
**A.** 0 of 3 and 0 of 6

**Q.** And the survivor count (dose: 400.0 mg/kg/injection, schedule: Q04DX002 (ip), vehicle: saline with Tween-80)?
**A.** 3 of 3

**Q.** For `CC(NC(=O)c1ccccc1)C(=O)O` (stereo unspecified), which survivor count [2] is on record?
**A.** 6 of 6

**Q.** For `C=CS(=O)(=O)CC`, which survivor count (dose: 100.0 mg/kg/injection, schedule: Q04DX002 (ip), vehicle: saline) is on record?
**A.** 1 of 3

**Q.** What about the survivor count [3] of the same compound?
**A.** 1 of 3

**Q.** What about the survivor count (dose: 400.0 mg/kg/injection, schedule: Q04DX002 (ip), vehicle: saline) of the same compound?
**A.** 1 of 3

**Q.** With `Cc1ccc(C(C)C)c(OCCNC2=NCCN2)c1` as the compound, how does the survivor count (dose: 100.0 mg/kg/injection, schedule: Q04DX003 (ip), vehicle: saline) read?
**A.** 4 of 6

**Q.** And the survivor count (dose: 200.0 mg/kg/injection, schedule: Q04DX003 (ip), vehicle: saline)?
**A.** 0 of 6

**Q.** And the survivor count (dose: 400.0 mg/kg/injection, schedule: Q04DX003 (ip), vehicle: saline)?
**A.** 0 of 6

**Q.** `CCOC(CCl)[N+](C)(C)C` (stereo unspecified) was tested. Which survivor count [3] did it give?
**A.** 1 of 3

**Q.** Which survivor count [4] does the source give for `BrCc1cc2ccccc2cc1CBr` here?
**A.** 1 of 6 and 5 of 6

**Q.** What about the survivor count [2] of the same compound?
**A.** 0 of 6

**Q.** What about the survivor count [5] of the same compound?
**A.** 0 of 6

**Q.** With `NN(c1ccccc1)c1ccc2ccccc2c1` as the compound, how does the survivor count [5] read?
**A.** 0 of 6

**Q.** With `NCCCCC(N)C(=O)NCCCCCCN(CCCCCCNC(=O)C(N)CCCCN)C(=O)C(N)CCCCN` (stereo unspecified) as the compound, how does the survivor count (dose: 200.0 mg/kg/injection, schedule: Q01DX001 (ip), vehicle: saline) read?
**A.** 1 of 6

**Q.** And the survivor count (dose: 400.0 mg/kg/injection, schedule: Q01DX001 (ip), vehicle: saline)?
**A.** 0 of 6

**Q.** `O=C(Nc1ccc(C2=NCCN2)cc1)c1cccc(C(=O)Nc2ccc(C3=NCCN3)cc2)n1` was tested. Which T/C (dose: 120.0 mg/kg/injection, schedule: Q01DX Z (ip), vehicle: methylcellulose (MC)) did it give?
**A.** 129 and 136 % of control

**Q.** How did the survivor count (dose: 16.0 mg/kg/injection, schedule: Q01DX009 (ip), vehicle: Klucel (hydroxypropylcellulose) (HPC)) turn out when `Cc1c(N)nc(C(CC(N)=O)NCC(N)C(N)=O)nc1C(=O)NC(C(=O)NC(C)C(O)C(C)C(=O)NC(C(=O)NCCc1nc(-c2nc(C(=O)NCCC[S+](C)C)cs2)cs1)C(C)O)C(OC1OC(CO)C(O)C(O)C1OC1OC(CO)C(O)C(OC(N)=O)C1O)c1cnc[nH]1` (stereo unspecified) was run?
**A.** 4 of 6

**Q.** With `CCc1ccc(NC(=O)c2ccco2)cc1` as the compound, how does the survivor count [4] read?
**A.** 6 of 6

**Q.** What about the survivor count [2] of the same compound?
**A.** 0 of 6

**Q.** What about the survivor count [5] of the same compound?
**A.** 0 of 6

**Q.** With `C[N+]1(Cc2ccccc2)C2CCC1C(=O)N(Cc1ccccc1)C2=O` (stereo unspecified) as the compound, how does the survivor count (dose: 300.0 mg/kg/injection, schedule: Q01DX001 (ip), vehicle: saline) read?
**A.** 0 of 6
